Data as given in PubChem BioAssay AID1508597 (Cure First, 2020).
The deposit covers about 2,100 reagents; shown is a random part of them. 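Calls flag viability under 80% in either arm, not effects specific to rucaparib; the reference for percent is not stated.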 Not stated in the record: the 100% reference.

- Assay: 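Genes whose silencing sensitises or protects ovarian cancer cells against rucaparib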 (primary screen)
- System: human ovarian carcinoma lines grown from tumours: OCI-P5x (papillary serous) and OCI-C5x (clear cell)
- Reagents: siRNA pool against human genes, 1.25 pmol siRNA per well
- Timing: 72 h or 96 h, depending on the cell culture
- Challenge: rucaparib 20 µM (about IC30) or vehicle, present until read-out
- Measured: 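ATP luminescence measured at 72 or 96 h according to the culture, then normalised and expressed as percent viability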
- Scale: viability, normalised: higher = more viable cells remaining
- Call rule: 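a well counts as a hit if its normalised viability is under 80 percent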
- Calls: active = viability under 80%; inactive = viability 80% or more

no.	gene knocked down	rucaparib or vehicle	cell line	technical replicate	viability, normalised (%)	call
1	DDX49	Rucaparib	OCI-C5x (clear cell)	1	55.3	active
2	DDX49	Rucaparib	OCI-C5x (clear cell)	2	53.5	active
3	DDX49	Rucaparib	OCI-C5x (clear cell)	3	35.7	active
4	DDX49	Rucaparib	OCI-P5x (serous)	1	62.2	active
5	DDX49	Rucaparib	OCI-P5x (serous)	2	69.4	active
6	DDX49	Rucaparib	OCI-P5x (serous)	3	50.4	active
7	DDX49	Vehicle	OCI-C5x (clear cell)	1	37.4	active
8	DDX49	Vehicle	OCI-C5x (clear cell)	2	48.2	active
9	DDX49	Vehicle	OCI-C5x (clear cell)	3	50.3	active
10	DDX49	Vehicle	OCI-P5x (serous)	1	52.3	active
11	DDX49	Vehicle	OCI-P5x (serous)	2	66.5	active
12	DDX49	Vehicle	OCI-P5x (serous)	3	85.7	inactive
13	SLC22A12	Rucaparib	OCI-C5x (clear cell)	1	52.6	active
14	SLC22A12	Rucaparib	OCI-C5x (clear cell)	2	55	active
15	SLC22A12	Rucaparib	OCI-C5x (clear cell)	3	50.3	active
16	SLC22A12	Rucaparib	OCI-P5x (serous)	1	46.2	active
17	SLC22A12	Rucaparib	OCI-P5x (serous)	2	59.1	active
18	SLC22A12	Rucaparib	OCI-P5x (serous)	3	53	active
19	SLC22A12	Vehicle	OCI-C5x (clear cell)	1	41.3	active
20	SLC22A12	Vehicle	OCI-C5x (clear cell)	2	34.1	active
21	SLC22A12	Vehicle	OCI-C5x (clear cell)	3	49.7	active
22	SLC22A12	Vehicle	OCI-P5x (serous)	1	54.4	active
23	SLC22A12	Vehicle	OCI-P5x (serous)	2	71.7	active
24	SLC22A12	Vehicle	OCI-P5x (serous)	3	81.3	inactive
25	PAK1	Rucaparib	OCI-C5x (clear cell)	1	72.2	active
26	PAK1	Rucaparib	OCI-C5x (clear cell)	2	72.4	active
27	PAK1	Rucaparib	OCI-C5x (clear cell)	3	73.2	active
28	PAK1	Rucaparib	OCI-P5x (serous)	1	112	inactive
29	PAK1	Rucaparib	OCI-P5x (serous)	2	110	inactive
30	PAK1	Rucaparib	OCI-P5x (serous)	3	112	inactive
31	PAK1	Vehicle	OCI-C5x (clear cell)	1	67.3	active
32	PAK1	Vehicle	OCI-C5x (clear cell)	2	60.7	active
33	PAK1	Vehicle	OCI-C5x (clear cell)	3	60.6	active
34	PAK1	Vehicle	OCI-P5x (serous)	1	101	inactive
35	PAK1	Vehicle	OCI-P5x (serous)	2	99.6	inactive
36	PAK1	Vehicle	OCI-P5x (serous)	3	114	inactive
37	MAPK9	Rucaparib	OCI-C5x (clear cell)	1	43.8	active
38	MAPK9	Rucaparib	OCI-C5x (clear cell)	2	61.7	active
39	MAPK9	Rucaparib	OCI-C5x (clear cell)	3	53.7	active
40	MAPK9	Rucaparib	OCI-P5x (serous)	1	77.6	active
41	MAPK9	Rucaparib	OCI-P5x (serous)	2	81.5	inactive
42	MAPK9	Rucaparib	OCI-P5x (serous)	3	66.8	active
43	MAPK9	Vehicle	OCI-C5x (clear cell)	1	54.9	active
44	MAPK9	Vehicle	OCI-C5x (clear cell)	2	76.3	active
45	MAPK9	Vehicle	OCI-C5x (clear cell)	3	81.3	inactive
46	MAPK9	Vehicle	OCI-P5x (serous)	1	99.2	inactive
47	MAPK9	Vehicle	OCI-P5x (serous)	2	69.9	active
48	MAPK9	Vehicle	OCI-P5x (serous)	3	71.8	active
49	TRPM6	Rucaparib	OCI-C5x (clear cell)	1	64.1	active
50	TRPM6	Rucaparib	OCI-C5x (clear cell)	2	39.1	active
51	TRPM6	Rucaparib	OCI-C5x (clear cell)	3	44	active
52	TRPM6	Rucaparib	OCI-P5x (serous)	1	103	inactive
53	TRPM6	Rucaparib	OCI-P5x (serous)	2	117	inactive
54	TRPM6	Rucaparib	OCI-P5x (serous)	3	89.1	inactive
55	TRPM6	Vehicle	OCI-C5x (clear cell)	1	49.4	active
56	TRPM6	Vehicle	OCI-C5x (clear cell)	2	40.5	active
57	TRPM6	Vehicle	OCI-C5x (clear cell)	3	45.9	active
58	TRPM6	Vehicle	OCI-P5x (serous)	1	77.6	active
59	TRPM6	Vehicle	OCI-P5x (serous)	2	72.2	active
60	TRPM6	Vehicle	OCI-P5x (serous)	3	68.5	active
61	MPP2	Rucaparib	OCI-C5x (clear cell)	1	62	active
62	MPP2	Rucaparib	OCI-C5x (clear cell)	2	60	active
63	MPP2	Rucaparib	OCI-C5x (clear cell)	3	58	active
64	MPP2	Rucaparib	OCI-P5x (serous)	1	107	inactive
65	MPP2	Rucaparib	OCI-P5x (serous)	2	115	inactive
66	MPP2	Rucaparib	OCI-P5x (serous)	3	112	inactive
67	MPP2	Vehicle	OCI-C5x (clear cell)	1	82.7	inactive
68	MPP2	Vehicle	OCI-C5x (clear cell)	2	79.3	active
69	MPP2	Vehicle	OCI-C5x (clear cell)	3	49.7	active
70	MPP2	Vehicle	OCI-P5x (serous)	1	97.1	inactive
71	MPP2	Vehicle	OCI-P5x (serous)	2	101	inactive
72	MPP2	Vehicle	OCI-P5x (serous)	3	93.5	inactive
73	EHMT1	Rucaparib	OCI-C5x (clear cell)	1	66.5	active
74	EHMT1	Rucaparib	OCI-C5x (clear cell)	2	48.3	active
75	EHMT1	Rucaparib	OCI-C5x (clear cell)	3	42.2	active
76	EHMT1	Rucaparib	OCI-P5x (serous)	1	64.1	active
77	EHMT1	Rucaparib	OCI-P5x (serous)	2	65	active
78	EHMT1	Rucaparib	OCI-P5x (serous)	3	66.5	active
79	EHMT1	Vehicle	OCI-C5x (clear cell)	1	57.3	active
80	EHMT1	Vehicle	OCI-C5x (clear cell)	2	62.3	active
81	EHMT1	Vehicle	OCI-C5x (clear cell)	3	88.4	inactive
82	EHMT1	Vehicle	OCI-P5x (serous)	1	66.6	active
83	EHMT1	Vehicle	OCI-P5x (serous)	2	77.1	active
84	EHMT1	Vehicle	OCI-P5x (serous)	3	90.3	inactive

In a second layout: results already given.
gene knocked down	rucaparib or vehicle	cell line	technical replicate	viability, normalised (%)	call
EHMT1	Rucaparib	OCI-C5x (clear cell)	3	42.2	active
EHMT1	Rucaparib	OCI-P5x (serous)	1	64.1	active
EHMT1	Rucaparib	OCI-P5x (serous)	2	65	active
EHMT1	Rucaparib	OCI-P5x (serous)	3	66.5	active
EHMT1	Vehicle	OCI-C5x (clear cell)	1	57.3	active
EHMT1	Vehicle	OCI-C5x (clear cell)	2	62.3	active
EHMT1	Vehicle	OCI-C5x (clear cell)	3	88.4	inactive
EHMT1	Vehicle	OCI-P5x (serous)	1	66.6	active
EHMT1	Vehicle	OCI-P5x (serous)	2	77.1	active
